Test results as given in US20210137126A1 (INSTITUT NATIONAL DES SCIENCES APPLIQUEES DE LYON, priority 2018, published 2021).
Plain letter strings leave the end groups untold.

Assay: peptide synthesis
Conditions: oxidative folding step, on reduced peptide (10 mg), several disulfide bridges, sequence written open

Work on “DFDPTEFKGPFPTIEICSKYCAVVCNYTSRPCYCVEAAKERDQWFPYCYD (listed as Acyrthosiphon pisum)” yielded an oxidative folding yield of 22%.
